# Substitutions are numbered along the chain they refer to. Names and notes keep the numbering of the source. Results are given in words; binding and its absence hold for the method and conditions named. Some entries that bind do so weakly or less than the wild type. Sequences can lack the tags named with a protein.
# Amino acid sequences for entries named in this document (tags omitted).
# UniProt Q9UQE7: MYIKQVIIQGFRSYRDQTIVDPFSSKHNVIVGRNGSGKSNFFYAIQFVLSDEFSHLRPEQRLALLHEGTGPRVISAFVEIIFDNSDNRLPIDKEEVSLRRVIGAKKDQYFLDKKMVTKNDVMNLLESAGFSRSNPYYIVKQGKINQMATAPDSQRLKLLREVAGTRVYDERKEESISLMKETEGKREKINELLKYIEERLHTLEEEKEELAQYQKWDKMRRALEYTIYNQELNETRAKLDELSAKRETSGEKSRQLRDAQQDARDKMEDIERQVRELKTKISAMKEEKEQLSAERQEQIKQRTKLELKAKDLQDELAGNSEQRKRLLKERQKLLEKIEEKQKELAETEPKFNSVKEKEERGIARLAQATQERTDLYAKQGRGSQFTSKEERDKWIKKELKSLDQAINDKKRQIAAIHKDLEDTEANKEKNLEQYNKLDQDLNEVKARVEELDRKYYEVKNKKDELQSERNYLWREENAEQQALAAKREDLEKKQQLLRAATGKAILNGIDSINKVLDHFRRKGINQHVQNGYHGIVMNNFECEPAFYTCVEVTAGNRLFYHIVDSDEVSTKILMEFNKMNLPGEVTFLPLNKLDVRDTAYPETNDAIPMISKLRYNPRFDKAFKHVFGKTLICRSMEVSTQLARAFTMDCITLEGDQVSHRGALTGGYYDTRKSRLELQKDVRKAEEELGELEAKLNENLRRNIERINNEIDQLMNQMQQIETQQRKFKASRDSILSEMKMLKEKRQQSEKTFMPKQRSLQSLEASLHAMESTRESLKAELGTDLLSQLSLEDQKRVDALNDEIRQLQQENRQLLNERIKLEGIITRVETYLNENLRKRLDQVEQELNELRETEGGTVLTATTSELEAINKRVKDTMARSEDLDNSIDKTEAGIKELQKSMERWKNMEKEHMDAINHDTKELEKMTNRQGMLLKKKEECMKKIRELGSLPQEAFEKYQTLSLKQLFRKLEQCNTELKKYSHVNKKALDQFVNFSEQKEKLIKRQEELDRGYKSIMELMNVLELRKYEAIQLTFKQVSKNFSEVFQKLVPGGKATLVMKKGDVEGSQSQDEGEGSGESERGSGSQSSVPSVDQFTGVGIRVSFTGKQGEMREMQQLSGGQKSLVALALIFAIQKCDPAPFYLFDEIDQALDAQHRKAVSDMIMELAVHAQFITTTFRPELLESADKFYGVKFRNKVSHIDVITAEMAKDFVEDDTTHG
# T1: 10xHis-SA1 (human) (UniProt Q8WVM7)
# T1 sequence: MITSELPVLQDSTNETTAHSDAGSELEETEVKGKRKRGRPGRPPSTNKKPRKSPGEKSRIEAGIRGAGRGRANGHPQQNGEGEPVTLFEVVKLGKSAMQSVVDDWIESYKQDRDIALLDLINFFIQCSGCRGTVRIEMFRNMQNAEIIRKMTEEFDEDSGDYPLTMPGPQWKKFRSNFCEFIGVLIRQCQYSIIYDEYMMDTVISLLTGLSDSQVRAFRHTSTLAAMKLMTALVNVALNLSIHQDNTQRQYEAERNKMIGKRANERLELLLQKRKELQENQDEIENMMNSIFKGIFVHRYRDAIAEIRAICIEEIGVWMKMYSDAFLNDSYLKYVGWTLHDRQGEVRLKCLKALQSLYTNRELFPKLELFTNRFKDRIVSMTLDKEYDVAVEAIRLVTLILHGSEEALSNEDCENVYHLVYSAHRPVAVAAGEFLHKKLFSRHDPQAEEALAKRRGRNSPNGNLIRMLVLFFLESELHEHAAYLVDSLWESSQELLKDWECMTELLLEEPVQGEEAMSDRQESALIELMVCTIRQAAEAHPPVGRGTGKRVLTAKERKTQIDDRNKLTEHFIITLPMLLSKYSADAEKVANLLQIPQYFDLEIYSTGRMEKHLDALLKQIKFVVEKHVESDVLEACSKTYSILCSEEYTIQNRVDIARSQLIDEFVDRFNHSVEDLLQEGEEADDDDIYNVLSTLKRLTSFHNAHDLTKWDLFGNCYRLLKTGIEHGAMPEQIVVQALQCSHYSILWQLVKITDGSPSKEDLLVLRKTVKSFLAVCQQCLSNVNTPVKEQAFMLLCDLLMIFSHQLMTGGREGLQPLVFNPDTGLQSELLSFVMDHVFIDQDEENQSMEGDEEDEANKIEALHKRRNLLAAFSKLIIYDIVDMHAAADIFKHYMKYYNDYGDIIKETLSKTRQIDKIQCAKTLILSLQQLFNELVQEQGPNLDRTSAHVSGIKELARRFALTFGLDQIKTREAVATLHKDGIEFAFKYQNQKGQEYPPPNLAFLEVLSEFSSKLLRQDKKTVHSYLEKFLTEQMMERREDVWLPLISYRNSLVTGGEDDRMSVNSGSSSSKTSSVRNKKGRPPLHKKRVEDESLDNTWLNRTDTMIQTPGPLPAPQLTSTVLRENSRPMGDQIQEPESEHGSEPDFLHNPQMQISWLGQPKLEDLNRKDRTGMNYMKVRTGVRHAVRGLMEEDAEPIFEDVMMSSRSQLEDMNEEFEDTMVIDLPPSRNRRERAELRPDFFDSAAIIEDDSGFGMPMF
# T2: Smc1 with a triple-StrepII tag (S. cerevisiae) (UniProt P32908)
# T2 sequence: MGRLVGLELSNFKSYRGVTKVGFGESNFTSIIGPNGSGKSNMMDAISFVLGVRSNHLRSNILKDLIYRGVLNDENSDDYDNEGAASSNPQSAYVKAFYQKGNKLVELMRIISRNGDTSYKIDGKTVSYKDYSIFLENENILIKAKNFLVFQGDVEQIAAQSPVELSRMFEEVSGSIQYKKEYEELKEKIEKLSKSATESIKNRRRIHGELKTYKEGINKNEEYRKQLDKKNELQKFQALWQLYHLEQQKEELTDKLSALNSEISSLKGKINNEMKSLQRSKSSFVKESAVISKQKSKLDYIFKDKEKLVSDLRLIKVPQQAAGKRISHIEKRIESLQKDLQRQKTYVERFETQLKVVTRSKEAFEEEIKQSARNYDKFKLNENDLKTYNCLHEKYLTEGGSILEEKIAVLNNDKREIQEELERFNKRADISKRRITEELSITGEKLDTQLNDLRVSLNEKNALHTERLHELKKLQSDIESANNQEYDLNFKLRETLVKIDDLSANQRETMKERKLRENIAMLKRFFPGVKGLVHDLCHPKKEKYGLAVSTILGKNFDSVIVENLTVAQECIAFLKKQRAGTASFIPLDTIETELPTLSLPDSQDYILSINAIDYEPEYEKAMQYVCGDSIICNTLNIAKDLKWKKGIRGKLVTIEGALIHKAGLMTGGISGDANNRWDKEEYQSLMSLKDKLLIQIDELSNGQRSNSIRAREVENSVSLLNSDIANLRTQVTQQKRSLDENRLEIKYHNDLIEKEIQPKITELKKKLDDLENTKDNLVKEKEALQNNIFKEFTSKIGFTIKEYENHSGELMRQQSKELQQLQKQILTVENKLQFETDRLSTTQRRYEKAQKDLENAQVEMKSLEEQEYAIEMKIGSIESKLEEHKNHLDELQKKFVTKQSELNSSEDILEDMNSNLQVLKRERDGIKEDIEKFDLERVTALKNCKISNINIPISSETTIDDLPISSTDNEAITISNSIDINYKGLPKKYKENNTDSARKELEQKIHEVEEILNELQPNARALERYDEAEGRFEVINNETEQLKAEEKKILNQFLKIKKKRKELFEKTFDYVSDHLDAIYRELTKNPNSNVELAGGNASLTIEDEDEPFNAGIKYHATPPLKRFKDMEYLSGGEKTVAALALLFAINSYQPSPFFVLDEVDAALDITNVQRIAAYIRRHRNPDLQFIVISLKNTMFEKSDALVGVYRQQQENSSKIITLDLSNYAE
# B1: Smc3 (protein, UniProt P47037 1-1230)
# chain: MYIKRVIIKGFKTYRNETIIDNFSPHQNVIIGSNGSGKSNFFAAIRFVLSDDYSNLKREERQGLIHQGSGGSVMSASVEIVFHDPDHSMILPSGVLSRGDDEVTIRRTVGLKKDDYQLNDRNVTKGDIVRMLETAGFSMNNPYNIVPQGKIVALTNAKDKERLQLLEDVVGAKSFEVKLKASLKKMEETEQKKIQINKEMGELNSKLSEMEQERKELEKYNELERNRKIYQFTLYDRELNEVINQMERLDGDYNNTVYSSEQYIQELDKREDMIDQVSKKLSSIEASLKIKNATDLQQAKLRESEISQKLTNVNVKIKDVQQQIESNEEQRNLDSATLKEIKSIIEQRKQKLSKILPRYQELTKEEAMYKLQLASLQQKQRDLILKKGEYARFKSKDERDTWIHSEIEELKSSIQNLNELESQLQMDRTSLRKQYSAIDEEIEELIDSINGPDTKGQLEDFDSELIHLKQKLSESLDTRKELWRKEQKLQTVLETLLSDVNQNQRNVNETMSRSLANGIINVKEITEKLKISPESVFGTLGELIKVNDKYKTCAEVIGGNSLFHIVVDTEETATLIMNELYRMKGGRVTFIPLNRLSLDSDVKFPSNTTTQIQFTPLIKKIKYEPRFEKAVKHVFGKTIVVKDLGQGLKLAKKHKLNAITLDGDRADKRGVLTGGYLDQHKRTRLESLKNLNESRSQHKKILEELDFVRNELNDIDTKIDQVNGNIRKVSNDRESVLTNIEVYRTSLNTKKNEKLILEESLNAIILKLEKLNTNRTFAQEKLNTFENDLLQEFDSELSKEEKERLESLTKEISAAHNKLNITSDALEGITTTIDSLNAELESKLIPQENDLESKMSEVGDAFIFGLQDELKELQLEKESVEKQHENAVLELGTVQREIESLIAEETNNKKLLEKANNQQRLLLKKLDNFQKSVEKTMIKKTTLVTRREELQQRIREIGLLPEDALVNDFSDITSDQLLQRLNDMNTEISGLKNVNKRAFENFKKFNERRKDLAERASELDESKDSIQDLIVKLKQQKVNAVDSTFQKVSENFEAVFERLVPRGTAKLIIHRKNDNANDHDESIDVDMDAESNESQNGKDSEIMYTGVSISVSFNSKQNEQLHVEQLSGGQKTVCAIALILAIQMVDPASFYLFDEIDAALDKQYRTAVATLLKELSKNAQFICTTFRTDMLQVADKFFRVKYENKISTVIEVNREEAIGFIRGSNKFAEV
# B2: Scc3 (protein, UniProt P40541 1-1150)
# chain: MTAVRRSTRIRTKSQVIEEDYDDEQNTSAQHVESDKITAKTQHEEEEEQDTGESEESSSEDDYEDQDDDDYVDTATAKRKSRKRKPKSASNTSSKRQKKKPTSAQKSAVSHAPAYHRSKKDQDQYLEIAKDFQPTELFDILSTSEDVSIEELLREWLETYSENRDKFLQEFINLLLNCCGSVARVEDHDVHSNESSNETIGEIQLLFQRQKLHEFYLLISKENKKRKNFKMGPLYQNFAEFMTKLLEVANDLQLLYVESDEDDTQIVTGNLVLDLLTWLSSFSVCKIRCFRYISTLTLYLFQDYLTQQAVNLEKNYLAKLSKQLSLEEKKKRPNNKTLEKLESTIAETQGSKVVIDSIIDNIVKLCFVHRYKDVSDLIRSESMLHLSIWIKNYPEYFLKVTFLKYFGWLLSDNSVSVRLQVTKILPHLIIQNHNSKSTDNSAIRQVFERFKTKILEVAIRDVNLDVRIHSIQVLTEASSLGYLDDSEILIISSLMFDEEFDPFKTSSFNKRSKFLSTVAKFLARVIKEKFDEFIKTHEDLPKEVDGLEVGPVVQVGIFIKILNDSLIYHLKDCAEVDSRTKIRMLTQAAEFLSPYISTHLKTICNLLISDTESNELIQKLQNSANNNSDDEDVDDEELDITPLFPIDRNSTILYLNVFHGLCAGANNPKIQTKDSVKEIVLPLFYDLLNAASIESADILCPLLESFITFSLDDWISIGYETELKKITDKTIKAFMDSTIGNSKVDMKYDIFAKFIHHIHHFEKKELQEKFLNQIATLKIHLKKFLQEKMDPNNSRDDYKDLTCSLYELYINKLTILGRDYPIEVDEELLQLFLNNFVSRIPIMFQDFDDSTAQEINFKMLVLLATWNLEKWREIIEKVRDYENSISKDLRSVWKPIAAIIGRLNTLVISLAATNETFENINSLFYLKWSACTSLMDIIVAIKIFELKLPADATTWRYSMSEQFPFYLHDNASKVLLKIFLYLESLFAKQVDVQLERVADEDANLNDLPETGFFENIETEFLLFTVKLKGLMKLNILDERFASRVALNKEKLGPLFKKIVDDTIMENPEPNKKNIQKAKSNQTQREKAPLQPNSERETDHANTENNDPDIPMTIDLEPIEESSQNNSELAPIEEHPTVVDAIDNSDEITQD
# B3: Smc3-K38I (cohesin ATPase mutant) (protein, UniProt P47037 1-1230)
# chain: B1 chain with K38I
# Legend:
# 10xHis-SA1 (human) = biological target: T1, 10xHis-SA1 (human); assay: co-purification (affinity and ion exchange chromatography); human subunits coexpressed in High Five insect cells; clarified lysate on HisTrap (10xHis on SA1), wash with 500 mM NaCl and 20 mM imidazole, eluted with 150 mM imidazole; tandem anion and cation exchange, eluted with 1 M NaCl; purity confirmed by gel electrophoresis and mass spectrometry
# [1] = biological target: T2, Smc1 with a triple-StrepII tag (S. cerevisiae); assay: co-purification (affinity, heparin and gel filtration chromatography); subunits co-overexpressed in S. cerevisiae; clarified lysate on StrepTrap-HP (3xStrepII on Smc1 or Scc2), buffer A 25 mM Hepes pH 7.5, 200 mM NaCl, eluted with 5 mM desthiobiotin; HiTrap Heparin HP gradient 150 mM to 1 M NaCl; Superose 6 Increase in 300 mM NaCl; analysed by SDS-PAGE with Coomassie, Western blot and mass spectrometry
Molecule,binding (10xHis-SA1 (human)),binding [1]
SMC3-FLAG (from UniProt Q9UQE7 1-1217),binds,
B1,,binds
B2,,binds
B3,,binds

# Reference: PMC6881171, “A conserved ATP- and Scc2/4-dependent activity for cohesin in tethering DNA molecules” (Science Advances, 2019)
